We go through one substance from paper PMC6868374.

By UniProt entry, the sequences of proteins in these tests, tags left out. Where a name states a change or a piece, a line headed by the entry shows the natural chain unless it says otherwise.
UniProt Q80SU3: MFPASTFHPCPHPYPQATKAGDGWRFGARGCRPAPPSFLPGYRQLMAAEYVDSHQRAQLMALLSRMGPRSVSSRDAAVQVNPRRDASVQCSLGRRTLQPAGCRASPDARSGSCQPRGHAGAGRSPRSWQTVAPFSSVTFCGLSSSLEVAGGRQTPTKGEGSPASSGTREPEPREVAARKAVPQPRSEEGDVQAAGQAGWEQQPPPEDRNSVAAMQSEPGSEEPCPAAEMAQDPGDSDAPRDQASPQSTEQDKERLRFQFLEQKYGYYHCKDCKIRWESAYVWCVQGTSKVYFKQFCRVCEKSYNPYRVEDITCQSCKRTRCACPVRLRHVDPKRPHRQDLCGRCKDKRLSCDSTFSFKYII
UniProt Q9Y2T7: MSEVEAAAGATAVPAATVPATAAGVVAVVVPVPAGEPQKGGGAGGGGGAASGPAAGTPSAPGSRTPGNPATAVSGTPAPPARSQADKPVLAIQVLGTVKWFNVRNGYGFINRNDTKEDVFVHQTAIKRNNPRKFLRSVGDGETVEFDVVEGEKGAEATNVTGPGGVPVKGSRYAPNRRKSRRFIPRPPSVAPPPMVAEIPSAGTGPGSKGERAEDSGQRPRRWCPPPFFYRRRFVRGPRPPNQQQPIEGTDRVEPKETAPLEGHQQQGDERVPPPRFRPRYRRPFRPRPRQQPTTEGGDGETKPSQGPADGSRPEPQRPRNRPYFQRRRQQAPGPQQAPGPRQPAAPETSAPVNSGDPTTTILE

These are yes or no findings as the source states them, for the method shown. In cells and extracts the contact can be indirect.

The assay concerns the target ZAR1^4CS, cysteine-to-serine zinc finger mutant of mouse ZAR1 (mouse) (UniProt Q80SU3). Briefly: co-IP; proteins co-expressed in HeLa cells for 48 h; lysis in 50 mM Tris-HCl pH 7.5, 150 mM NaCl, 10% glycerol, 0.5% NP-40; immunoprecipitation with affinity gels (Sigma) for 4 h at 4°C; western blot. A general note: A western blot detects proteins with antibodies after separation by electrophoresis.

MSY2 (from UniProt Q9Y2T7 1-364): the binding entry was “no binding”.
